No constants are given. Whether binding was seen depends on the method and setting. Binding can be weak; no strength is given. For some assays here: Binding seen in cells or lysates may run through a third protein. For some assays here: Tags and fused reporters may be left off the sequences shown.
Tests used:
[1] = molecular target: T1, HopF2Pto, yeast two-hybrid bait (QIS-seq) (Pseudomonas syringae pv. tomato DC3000) (UniProt Q88A90); assay: two-hybrid; yeast 2-hybrid screening coupled with next-generation sequencing (QIS-seq), HopF2Pto as the screened protein
T1 sequence: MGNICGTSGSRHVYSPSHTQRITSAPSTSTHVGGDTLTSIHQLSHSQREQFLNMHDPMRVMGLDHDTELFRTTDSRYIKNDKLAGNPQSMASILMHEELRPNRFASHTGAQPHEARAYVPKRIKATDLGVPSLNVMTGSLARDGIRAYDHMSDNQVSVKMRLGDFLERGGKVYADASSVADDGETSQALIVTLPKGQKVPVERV

Sequences of proteins named here, by UniProt entry; tags and fusion partners are left off. A change or cut given only in a name is not applied to a line headed by its entry.
UniProt Q9M8T0: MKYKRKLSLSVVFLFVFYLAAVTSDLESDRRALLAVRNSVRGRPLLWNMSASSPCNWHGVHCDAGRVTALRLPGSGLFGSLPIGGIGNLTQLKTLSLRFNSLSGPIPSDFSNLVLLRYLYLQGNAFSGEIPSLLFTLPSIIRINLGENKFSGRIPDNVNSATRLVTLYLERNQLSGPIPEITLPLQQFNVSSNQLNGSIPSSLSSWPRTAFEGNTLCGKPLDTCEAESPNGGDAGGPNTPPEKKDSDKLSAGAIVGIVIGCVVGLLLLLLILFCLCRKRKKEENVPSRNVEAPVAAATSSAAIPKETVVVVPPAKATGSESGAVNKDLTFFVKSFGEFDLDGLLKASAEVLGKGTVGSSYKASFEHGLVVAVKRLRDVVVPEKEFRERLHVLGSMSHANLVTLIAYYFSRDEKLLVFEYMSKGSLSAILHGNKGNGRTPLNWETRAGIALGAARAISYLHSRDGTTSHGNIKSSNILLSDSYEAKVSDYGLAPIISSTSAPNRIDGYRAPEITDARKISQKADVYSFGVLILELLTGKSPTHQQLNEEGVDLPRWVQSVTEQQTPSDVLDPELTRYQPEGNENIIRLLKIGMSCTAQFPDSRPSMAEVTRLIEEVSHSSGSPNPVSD

[2] = molecular target: T2, HopF2Pto-HA (Pseudomonas syringae pv. tomato DC3000) (UniProt Q88A90); assay: co-IP
T2 sequence: T1 sequence

| Substance | binding [1] | binding [2] |
| --- | --- | --- |
| QSK1, yeast two-hybrid prey (QIS-seq) (from UniProt Q9M8T0) | binds |  |
| QIAN SHOU KINASE 1 (QSK1), endogenous (from UniProt Q9M8T0) |  | binds |

From PMC11641854
